Results are given in words; binding and its absence hold for the method and conditions named. Binding seen in cells or lysates may run through a third protein. These calls come from enrichment with a bait or labelling near it, and not all partners need be listed. For part of these data: Where a sequence is shown, tags or fusion partners need not be part of it.
T1: GFP-DDHD2 (pEGFP-C1-DDHD2^WT) (UniProt O94830)
T1 sequence: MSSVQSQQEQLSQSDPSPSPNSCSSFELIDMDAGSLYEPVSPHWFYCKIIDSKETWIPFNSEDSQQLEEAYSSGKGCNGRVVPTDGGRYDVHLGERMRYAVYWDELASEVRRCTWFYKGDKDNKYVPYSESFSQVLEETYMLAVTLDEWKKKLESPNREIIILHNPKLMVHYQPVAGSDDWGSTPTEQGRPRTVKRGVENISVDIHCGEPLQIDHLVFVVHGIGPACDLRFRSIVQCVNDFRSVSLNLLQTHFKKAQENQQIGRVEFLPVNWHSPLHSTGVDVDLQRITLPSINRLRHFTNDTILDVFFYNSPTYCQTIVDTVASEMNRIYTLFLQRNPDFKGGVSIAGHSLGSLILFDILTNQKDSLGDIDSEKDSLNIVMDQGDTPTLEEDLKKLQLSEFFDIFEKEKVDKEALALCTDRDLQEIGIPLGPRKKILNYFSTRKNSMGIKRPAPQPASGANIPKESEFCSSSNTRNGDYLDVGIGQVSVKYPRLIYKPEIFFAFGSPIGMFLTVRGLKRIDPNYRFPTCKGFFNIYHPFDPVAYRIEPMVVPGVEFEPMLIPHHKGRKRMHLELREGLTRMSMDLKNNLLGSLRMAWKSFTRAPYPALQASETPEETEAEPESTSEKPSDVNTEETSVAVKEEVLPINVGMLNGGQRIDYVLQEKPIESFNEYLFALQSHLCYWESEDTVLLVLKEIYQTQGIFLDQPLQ

Chains of the proteins cited; added tags and fusions are not shown.
UniProt P61765: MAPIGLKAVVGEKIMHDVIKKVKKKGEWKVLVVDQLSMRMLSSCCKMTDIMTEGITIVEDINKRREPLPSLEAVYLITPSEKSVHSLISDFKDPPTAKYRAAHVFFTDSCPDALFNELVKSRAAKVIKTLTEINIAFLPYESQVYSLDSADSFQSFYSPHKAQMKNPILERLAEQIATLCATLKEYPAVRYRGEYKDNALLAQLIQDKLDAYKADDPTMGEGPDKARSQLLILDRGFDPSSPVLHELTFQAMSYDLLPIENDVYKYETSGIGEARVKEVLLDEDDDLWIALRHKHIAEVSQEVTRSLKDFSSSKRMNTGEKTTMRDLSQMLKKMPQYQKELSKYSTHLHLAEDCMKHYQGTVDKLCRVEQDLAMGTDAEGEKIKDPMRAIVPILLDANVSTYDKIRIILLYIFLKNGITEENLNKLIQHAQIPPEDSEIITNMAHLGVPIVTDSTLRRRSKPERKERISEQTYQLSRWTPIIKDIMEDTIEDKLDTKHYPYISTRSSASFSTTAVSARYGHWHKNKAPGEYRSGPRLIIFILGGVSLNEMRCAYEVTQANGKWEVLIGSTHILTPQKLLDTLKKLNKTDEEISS

B1: Rab10, endogenous in PC12 cells (protein, UniProt P35281 1-200)
chain: MAKKTYDLLFKLLLIGDSGVGKTCVLFRFSDDAFNTTFISTIEIDFKIKTVELQGKKIKLQIWDTAGQERFHTITTSYYRGAMGIMLVYDITNGKSFENISKWLRNIDQHANEDVERMLLRNKCDMDHKRVVPKGKGEQIAREHRIRFFETSAKANINIEKAFLTLPEDILRKTPVKEPNSENVDISSGGGVTGWKSKCC
B2: Rab3c, endogenous in PC12 cells (protein, UniProt P62824 1-227)
chain: MRHEAPMQMASAQDARFGQKDSSDQNFDYMFKLLIIGNSSVGKTSFLFRYADDSFTSAFVSTVGIDFKVKTVFKNEKRIKLQIWDTAGQERYRTITTAYYRGAMGFILMYDITNEESFNAVQDWSTQIKTYSWDNAQVILAGNKCDMEDERVVSTERGQRLGEQLGFEFFETSAKDNINVKQTFERLVDIICDKMSESLETDPAITAAKQSTRLKETPPPPQPNCGC
B3: Sec22b, endogenous in PC12 cells (protein, UniProt Q4KM74 1-215)
chain: MVLLTMIARVADGLPLAASMQEDEQSGRDLQQYQSQAKQLFRKLNEQSPTRCTLEAGAMTFHYIIEQGVCYLVLCEAAFPKKLAFAYLEDLHSEFDEQHGKKVPTVSRPYSFIEFDTFIQKTKKLYIDSRARRNLGSINTELQDVQRIMVANIEEVLQRGEALSALDSKANNLSSLSKKYRQDAKYLNMRSTYAKLAAVAVFFIMLIVYVRFWWL
B4: Rab5c, endogenous in PC12 cells (protein, UniProt B0BNK1 1-216)
chain: MAGRGGAARPNGPAAGNKICQFKLVLLGESAVGKSSLVLRFVKGQFHEYQESTIGAAFLTQTVCLDDTTVKFEIWDTAGQERYHSLAPMYYRGAQAAIVVYDITNTDTFARAKNWVKELQRQASPNIVIALAGNKADLASKRAVEFQEAQAYADDNSLLFMETSAKTAMNVNEIFMAIAKKLPKNEPQNAAGAPGRNRGVDLQESNPASRSQCCSN
B5: Nefm, endogenous in PC12 cells (protein, UniProt P12839 1-846)
chain: MSYTLDSLGNPSAYRRVPTETRSSFSRVSGSPSSGFRSQSWSRGSPSTVSSSYKRSALAPRLAYSSAMLSSAESSLDFSQSSSLLNGGSGGDYKLSRSNEKEQLQGLNDRFAGYIEKVHYLEQQNKEIEAEIHALRQKQASHAQLGDAYDQEIRELRATLEMVNHEKAQVQLDSDHLEEDIHRLKERFEEEARLRDDTEAAIRAVRKDIEESSMVKVELDKKVQSLQDEVAFLRSNHEEEVADLLAQIQASHITVERKDYLKTDISTALKEIRSQLECHSDQNMHQAEEWFKCRYAKLTEAAEQNKEAIRSAKEEIAEYRRQLQSKSIELESVRGTKESLERQLSDIEERHNHDLSSYQDTIQQLENELRGTKWEMARHLREYQDLLNVKMALDIEIAAYRKLLEGEETRFSTFSGSITGPLYTHRQPSVTISSKIQKTKVEAPKLKVQHKFVEEIIEETKVEDEKSEMEDALTVIAEELAASAKEEKEEAEEKEEEPEVEKSPVKSPEAKEEEEGEKEEEEEGQEEEEEEDEGVKSDQAEEGGSEKEGSSEKDEGEQEEEGETEAEGEGEEAEAKEEKKTEGKVEEMAIKEEIKVEKPEKAKSPVPKSPVEEVKPKPEAKAGKDEQKEEEKVEEKKEVAKESPKEEKVEKKEEKPKDVPDKKKAESPVKEKAVEEMITITKSVKVSLEKDTKEEKPQQQEKVKEKAEEEGGSEEEVGDKSPQESKKEDIAINGEVEGKEEEEQETQEKGSGQEEEKGVVTNGLDVSPAEEKKGEDRSDDKVVVTKKVEKITSEGGDGATKYITKSVTVTQKVEEHEETFEEKLVSTKKVEKVTSHAIVKEVTQGD
B6: DDHD2, endogenous in PC12 cells (enzyme, UniProt D3ZJ91 1-699)
chain: MSSGESYQEQLSQSDPSPSPNSSSSFELLDMDVGSSYEPVSPHWFYCKVIDSKELWIPFNSEDSQQLEEAHGSGKDCNERVVPTDGGRYDVHLGERMRYAVYWDELPSEVRRCTWFYKGDKDNKYVPYSESFSQVLEDTYMLAVTLDEWKKKLESPNREIIVLHNPKLMVHYQPITGSDEWGSTSTEQGRPRSVKRGVESIPVDIHCGEPLQIDHLVFVVHGIGPACDLRFRSIVQCVNDFRSVSLNLLQTHFKKAQENQQIGRVEFLPVNWHSPLHSTGVDIDLQRITLPSINRLRHFTNDTILDVFFYNSPTYCQTIVDTVASEMNRIYTLFLQRNPDFKGGVSIAGHSLGSLILFDILTNQKDSIGDIDSEKGSLSTAEDLGDVSTLEEELKKLQLSEFVTVFEKEKVDREALALCTDRDLQEMGIPLGPRKKILNHFSATKSSVGINRPTMSASEVNIPKEKGDYLDVGIGQVSVKYPRLNYKPEIFFAFGSPIGMFLTVRGLRRIDPNYKFPTCKGFFNIYHPFDPVAYRIEPMVVPGVEFEPMLIPHHKGRKRMHLELREGLTRMSMDLKNNLLGSLRMAWKSFTRAPYPALQASEMAEDTEAESEPSSEKPSDANTEEPPVEVKEEAPINVGMLNGGQRIDYVLQEKPIESFNEYLFALQSHLCYWESEDTVLLVLKEIYQTQGIFLDQPLQ

target: T1, GFP-DDHD2 (pEGFP-C1-DDHD2^WT); test: affinity purification with mass spectrometry; anti-GFP magnetic beads on lysate (0.5% NP-40, 150 mM NaCl) of PC12 cells transfected with GFP-tagged DDHD2, resting state; tryptic digest, untargeted high-resolution tandem MS (HRMS), 1% FDR; proteins found in non-GFP process controls removed

binding, binds:
B1
B2
B3
B4
B5

target: STXBP1-emGFP (pCMV-STXBP1-emGFP) (UniProt P61765); test: affinity purification with mass spectrometry; anti-GFP pull-downs of GFP-tagged DDHD2 or GFP-tagged STXBP1 from PC12 cells; targeted MRM-MS of seven STXBP1 and four DDHD2 proteotypic peptides; unstimulated or stimulated (high K+) cells

binding, binds:
B6

From publication PMC10897203
